The whole screen tested about 340,000 compounds, of which about 170 (0.05%) were called active. Inconclusive means that the source gave no clear call. Such entries were picked first, then a sample of the others. Calls come from the whole dose curve; as a rule, active = well fitted inhibition curve with a large enough effect in the signal ratio, with a control signal flat (not every such curve was filed as active); inconclusive = small, poorly fitted or top-dose-only effect, or effect the other way, or a change in a side signal; inactive = flat fitted curve, though single readings scatter; the % refers to the signal ratio. Potencies beside an inconclusive call are fits to weak or partial responses and may not hold up.
Assay: qHTS Assay to Find Inhibitors of Chronic Active B-Cell Receptor Signaling;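 for activity change, negative = inhibition: plate controls were basal doxycycline-induced cells for no effect and cells given 10 µM MG132 for full effect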
Conditions: ABC-DLBCL IkBa-CBG/CBR reporter, luminescence ratio (green luciferase fused to IkBa over red control in TMD8 lymphoma cells), 4 h; activity change, negative = inhibition: at 46.1 µM (top of the series) unless noted
Procedure, shortened: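 Concentration-response series (up to 46 uM) were applied to TMD8 dual-reporter cells for 4 h at 37C with doxycycline. Green/red ratio, after filter-overlap correction, defined %Activity; red signal alone was normalised to basal cells and zero luminescence.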
Potency is the fitted concentration of half-maximal effect.

Structure (SMILES)	activity change, negative = inhibition	Potency
CC1=C(C(=O)c2ccccc2)C(c2cn(-c3ccccc3)nc2-c2ccc(Cl)cc2)NC(=S)N1 (centres undefined)	inconclusive: 15.9%	–
COc1ccc(-c2n[nH]c3c2CN(C(=O)c2ccc(OC)c(OC)c2)CC3)cc1	–	inconclusive: 15.8 µM [falling, single point]
O=C(N/C(=C/c1cccs1)C(=O)N1CCOCC1)c1ccccc1	–	inconclusive: 4.47 µM [falling, full curve, poor fit]
COc1ccc(CN(C)C(=O)Cc2c[nH]c3ccccc23)cc1	inconclusive: -5.53%	–
CC(=O)c1ccc(-c2ccc(C(=O)Nc3nc(-c4ccccn4)cs3)o2)cc1	inactive: -0.916%	–
CCCCn1c(SCC(=O)N2CCOCC2)nc2ccccc2c1=O	inactive: 14.9%	–
COc1ccc(CCN2CC(C(=O)O)CC2=O)cc1OC (centres undefined)	inconclusive: -5.26%	–
COc1cc(C(=O)N/N=C/c2ccc(OC(=O)N3CCOCC3)cc2)cc(OC)c1OC	–	inconclusive: 20.6 µM [falling, partial curve, poor fit]
CCOC(=O)[C@H]1[C@H]2COc3ccc(Cl)cc3[C@@H]2N2C(=O)CN(Cc3ccc(Cl)cc3)C(=O)[C@@]12C	inconclusive: -7.27%	–
Cc1cc(C)n(-c2nnc(C)c(=O)[nH]2)n1	inactive: -1%	–
CC1CCC(NC(=O)COC(=O)CCC(=O)c2ccc(Cl)s2)CC1 (centres undefined)	inactive: -4.31%	–
O=C(NC1CCCCC1)C1CCN(S(=O)(=O)c2cccc3nonc23)CC1	inconclusive: 11.1%	–
Cn1c(=O)c2c(nc(N3CCN(c4ccc([N+](=O)[O-])cc4)CC3)n2C)n(C)c1=O	inconclusive: -5.66%	–
COC(=O)c1sccc1NC(=O)Cn1nnc(-c2ccccc2C)n1	inconclusive: -3.13%	–
CCn1nc(C)c(CNC(=O)c2cc(COc3cncc(Cl)c3)on2)c1C	inconclusive: -0.778%	–
Cc1cc(C)n(-c2nnc3c4ccccc4n(C)c3n2)n1	inactive: 9.82%	–
CCCCC[C@H](O)/C=C/[C@@H]1[C@@H](C/C=C\CCCC(=O)O)[C@@H](O)C[C@H]1O	–	inconclusive: 6.31 µM [falling, full curve]
Cn1cccc1-c1cc(C(=O)N/N=C/c2ccc(F)cc2)[nH]n1	inconclusive: -21.9%	–
CC(C)OCCCNC(=O)c1cccc(NC(=O)c2ccccc2)c1	inconclusive: -6.2%	–
COc1ccc(CCNC(=O)/C(C#N)=C/c2cccc(OCc3ccccc3)c2)cc1OC	–	inconclusive: 20.6 µM [falling, partial curve, poor fit]

Two of the compounds above, as labelled records:
CC(=O)c1ccc(-c2ccc(C(=O)Nc3nc(-c4ccccn4)cs3)o2)cc1
  activity change, negative = inhibition: inactive: -0.916%
CCCCn1c(SCC(=O)N2CCOCC2)nc2ccccc2c1=O
  activity change, negative = inhibition: inactive: 14.9%

Next part

Structure (SMILES)	activity change, negative = inhibition	Potency
Cc1ccccc1OCC(=O)OCC(=O)N1CCCc2ccccc21	inconclusive: 3.33%	–
O=C(Nc1ccc2[nH]c3c(c2c1)CCCC3)c1ccco1	inconclusive: 10.5%	–
COc1ccc(C(CNC(=O)c2oc3c(Cl)cccc3c2C)N2CCCC2)cc1 (centres undefined)	–	inconclusive: 5.8 µM [falling, partial curve, poor fit]
C=CCNC(=O)c1ccc(OC2CCN(S(=O)(=O)N(C)C)CC2)cc1	inconclusive: 0.663%	–
Cc1ccc(C(=O)O/N=C(\N)c2ccc(Br)cc2)cc1	inconclusive: 20%	–
Cc1ccc(-c2nnc(SCC(=O)NC3CCCc4ccccc43)n2N)cc1 (centres undefined)	inconclusive: -7.3%	–
COc1cccc(NC(=S)Nc2ccc(O)cc2)c1	inactive: -14.5%	–
COc1ccc(-c2nc3sc(CCNC(=O)C(=O)Nc4ccc(OC)c(OC)c4)c(C)n3n2)cc1	inconclusive: 1.55%	–
O=C(Cc1ccccc1)NCC(=O)N1CCCCC1	inconclusive: -13.1%	–
COc1cccc(C(=O)NNC(=O)C(=O)Nc2ccc(C)cc2)c1	–	inconclusive: 20 µM [falling, partial curve]
[O-]/C(=C(\C(=S)Nc1ccc(Cl)cc1)[n+]1ccccc1)c1ccc(OC(F)F)cc1	–	inconclusive: 7.94 µM [falling, partial curve, poor fit]
CC(=O)c1cccc(OCc2cc(C(=O)N3C[C@H]4CC[C@H]3C4)no2)c1	inactive: 4.36%	–
Cc1ccc([C@H]2C(C(=O)O)=CC[C@@H](c3ccc(Cl)c(Cl)c3)N2S(=O)(=O)c2ccc(C)cc2)cc1	inconclusive: -6%	–
COCCNC(=S)N(CCc1c(C)[nH]c2ccc(Cl)cc12)Cc1cccnc1	inconclusive: -0.374%	–
COCCn1nnnc1SCC(=O)c1ccccc1	inconclusive: 1.75%	–
COc1ccccc1NC(=O)CSc1nnnn1-c1ccc(C(=O)O)cc1	–	inconclusive: 11.2 µM [falling, partial curve, poor fit]
Cc1cc(/C=C2\SC(=Nc3ccc(F)cc3)NC2=O)c(C)n1-c1ccc(S(N)(=O)=O)cc1	inconclusive: -23.7%	–
c1ccc(-c2cn(CC3CCCCC3)nn2)cc1	inactive: -5.07%	–
CC(C)=NNc1nc(-c2ccc([N+](=O)[O-])cc2)cs1	inconclusive: 13.7%	–

Source: PubChem BioAssay AID493014 (National Center for Advancing Translational Sciences (NCATS), 2011)
